According to PMC8152094:

Target: MBP-CesL (enteropathogenic Escherichia coli (EPEC) E2348/69)
Experiment: pull-down; MBP-CesL from a cleared lysate bound to amylose resin and washed; cleared E. coli lysate with the prey loaded on the column; washes with 50 mM Tris-HCl pH 7.4, 500 mM NaCl; eluted with 20 mM maltose; SDS-PAGE and immunoblot; only the target purified

B1: His-EscUC (domain or fragment, UniProt Q9AJ26 215-345)
chain: MSKDEVKREAKDTDGNPEIKGERRRLHSEIQSGSLANNIKKSTVIVKNPTHIAICLYYKLGETPLPLVIETGKDAKALQIIKLAELYDIPVIEDIPLARSLYKNIHKGQYITEDFFEPVAQLIRIAIDLDY
Question: For B1, which binding is on record?
Answer: The binding was “binds”.

These are yes or no findings as the source states them, for the method shown. In cells and extracts the contact can be indirect. Binding calls can cover weak binding; strength is not graded here. Where a sequence is shown, tags or fusion partners need not be part of it.
